This is an account of results in the supplement of paper PMC8256030.

Assay [1] deals with SARS-CoV-2 -1 PRF reporter mCherry-FSE-GFP(-1). The assay can be described thus: mCherry (red) intensity as percent of control; higher = higher upstream reporter expression. The settings on record: 10 µM; 24 h; HEK293T.
Assay [2] shares this test system. Briefly: percent effect, decrease of GFP/mCherry ratio (-1 PRF reporter) relative to controls; higher = stronger frameshift inhibition. As to conditions: 10 µM; 24 h; HEK293T.

The other results are listed elsewhere or left out. Repeats in this data set agree poorly, so a single value says little.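 HEK293T cells were given each compound shortly before transfection with a reporter in which red mCherry is followed by the SARS-CoV-2 frameshift element and then GFP in the −1 frame, so GFP appears only after frameshifting.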

On to `NC1=N[C@H](O)[C@H]2[C@H]3O[C@]4(O)O[C@@H]([C@@H](O)[C@@]2(N1)[C@@H]4O)[C@]3(O)CO` [tetrodotoxin], for which the mCherry in assay [1] stood at 71.5%. The percent effect in assay [2] amounted to 2.76%.
